{"source": "patent US10537643B2", "about": "“Chemoembolization composition comprising anti-angiogenic agents” (CENTRE HOSPITALIER UNIVERSITAIRE VAUDOIS, priority 2010, dated 2020)", "type_in_all_cases": "physicochemical", "key": {"[1]": {"assay": "Loading sunitinib into Quadrasphere (supernatant absorbance at 430 nm)", "conditions": "10 mL of 2.5 mg/mL sunitinib"}, "[2]": {"assay": "Sunitinib loading in DCbead (supernatant titration at 430 nm)"}, "[3]": {"assay": "Drug release from loaded DCbead, USP method 4 (flow-through) in NaCl 0.9%", "conditions": "37° C."}}, "note": "At least one structure is not confirmed: it was looked up by name or label, or the drawing left a doubt."}
{"molecule": "CCN(CC)CCNC(=O)c1c(C)[nH]c(/C=C2\\C(=O)Nc3ccc(F)cc32)c1C", "note": "[sunitinib]", "values": [{"measurement": "drug loaded in the Quadrasphere", "setting": "[1]; Quadrasphere 25 mg, after 2 hours", "value": 99.6, "unit": "%"}, {"measurement": "drug found in the supernatant", "setting": "[1]; Quadrasphere 50-100 microns 25 mg, after 15 min", "value": "less than 1%"}, {"measurement": "time to complete absorption of 20 mg sunitinib per g of bead", "setting": "[2]; 2 mL supernatant solution, initial concentration 10 mg/mL sunitinib", "value": 90, "unit": "min"}, {"measurement": "bead loading", "setting": "[2]; 4 mL of 10 mg/mL sunitinib, two hours", "value": "20 mg sunitinib per g of DCbead"}, {"measurement": "drug disappeared from the supernatant (loaded into the beads)", "setting": "[2]; DCbead 100-300 microns, 4 mL of 10 mg/mL sunitinib in 5% glucose, two hours, room temperature", "value": "> 98", "unit": "%"}, {"measurement": "release profile", "setting": "[3]; NaCl 0.9%, 5 ml/min, n=6 cells", "value": "gradual release over 6 hours"}, {"measurement": "T75% (period necessary to reach 75% of the plateau concentration)", "setting": "[3]; loaded DCbead, 30 mL NaCl 0.9%, USP 4 flow-through", "value": 1.3, "unit": "h"}]}
